From article PMC7819943, “Rice protein-binding microarrays: a tool to detect cis-acting elements near promoter regions in rice” come the findings set out here.

Amino acid sequences for entries named in this document (tags omitted).
UniProt Q0JBA9, entry or part of it: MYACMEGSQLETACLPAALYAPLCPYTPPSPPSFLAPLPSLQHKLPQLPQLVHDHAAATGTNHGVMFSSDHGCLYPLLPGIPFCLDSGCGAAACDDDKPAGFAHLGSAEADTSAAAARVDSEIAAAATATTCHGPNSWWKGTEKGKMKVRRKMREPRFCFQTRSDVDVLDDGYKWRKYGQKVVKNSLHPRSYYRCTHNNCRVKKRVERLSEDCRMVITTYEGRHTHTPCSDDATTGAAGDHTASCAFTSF

Some of the results follow.

In the assay the target is OsWRKY34 (Oryza sativa, UniProt Q0JBA9 1-250). Kind of assay: protein-binding microarray (RPBM); PBS, 2% BSA, 51.3 ng/ul salmon testes DNA, 50 uM zinc acetate, 200 nM TF, 25 C, 1 h; high values mean tight binding. The conditions noted are these: protein: recombinant; tags: N-terminal polyhistidine and DsRed monomer fusion (pET32a); label: CyDye5-dUTP incorporated in the synthesized complementary strand; 3' TTTTT single-stranded linker to array surface; dsDNA, one strand shown. The method in brief: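 The binding signal is fluorescence intensity per array feature (arbitrary units). Readings came from an Axon 4000B scanner after a washed, 2% BSA-blocked, double-stranded custom Agilent array had been incubated for 1 h at 25 °C with 200 nM protein and 50 µM zinc acetate. The protein was a Ni–NTA-purified transcription factor fused N-terminally to polyhistidine and DsRed, expressed in E. coli BL21-CodonPlus.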
Turning to “AAACCATCCCGCCCATGTAAACAATCACCGCCCTTGACTCCGGAGTCACCTAGTGCAG”, the binding signal was 11400 fluorescence intensity (a.u.).

As for “TGTAGGGGTATACTTGGATTTTGGGAGAAGCTGTAATGTGCGGAGTCACCTAGTGCAG”, the binding signal is 11700 fluorescence intensity (a.u.).

Consider “GCTGCACACCAGCTCTCGTGCCCAGTCGCCGCTTGTTGATCGGAGTCACCTAGTGCAG”, for which the binding signal is 9560 fluorescence intensity (a.u.).

“TGGGGAGGCATTCTTTTCTTTTTCTTTTTTTTTCACTCTCCGGAGTCACCTAGTGCAG”: the binding signal is 14500 fluorescence intensity (a.u.).

Turning to “CATTGTTTCATTTTAAGCTTTTATTCACCATCTCTATTATCGGAGTCACCTAGTGCAG”, the binding signal is 9450 fluorescence intensity (a.u.).

Turning to “TCTTCTCGATCGTTATATCGCGACCAGTACGCGCTACTACCGGAGTCACCTAGTGCAG”, the binding signal is 11600 fluorescence intensity (a.u.).

Turning to “CAAAGTACATGCATACCCTGCATCACATATCAACCATACACGGAGTCACCTAGTGCAG”, the binding signal is 9030 fluorescence intensity (a.u.).

For “GTTGATGGACAGGGAGGGAGGCAAGTGGGGCTGTGAATTCCGGAGTCACCTAGTGCAG”, the binding signal was 8900 fluorescence intensity (a.u.).

As to “TTTATCTATGTTGGTTTTTTTCGCTTTTTACTTTTTATTTCGGAGTCACCTAGTGCAG”, the binding signal was 14700 fluorescence intensity (a.u.).

For the sequence “CTTTTTTATTTTCATGAAATAATGTTTTGTTTTTAAAAATCGGAGTCACCTAGTGCAG”, the binding signal was 11600 fluorescence intensity (a.u.).

In the case of “TGCTCCATTTCTCATTCAAAATTGACCTTTCATGACCAAACGGAGTCACCTAGTGCAG”, the binding signal is 8140 fluorescence intensity (a.u.).

As for “ATCGTCGAGTGTACTAGTAGTAGGTTAGTGGTGGCTGGGTCGGAGTCACCTAGTGCAG”, the binding signal is 8660 fluorescence intensity (a.u.).

As to “GTCCGATCATCTCACGTGGCATCTCGAAGCGGCCGCATTACGGAGTCACCTAGTGCAG”, the binding signal is 8140 fluorescence intensity (a.u.).

Regarding “CTCTTACATGACTCCTTCCTTCTCTTCTTTTTCTCATTCCCGGAGTCACCTAGTGCAG”, the binding signal was 14100 fluorescence intensity (a.u.).

For the sequence “TGGAGGGGTGGGGAAGAAGAGGCTGACGCGTGGGGCCCATCGGAGTCACCTAGTGCAG”, the binding signal was 9780 fluorescence intensity (a.u.).

As for “ATGGTTCTTATCACTCTGCTATTACCTATTATTGCTTGTTCGGAGTCACCTAGTGCAG”, the binding signal was 13600 fluorescence intensity (a.u.).

In the case of “CATCCATCATATCGCCTCGTCGATCGTCTCCACCTTTCTTCGGAGTCACCTAGTGCAG”, the binding signal was 8030 fluorescence intensity (a.u.).

For the sequence “AATCAAACTTGAAATTTCTTGCTCCTCAGTTTTCTAATTTCGGAGTCACCTAGTGCAG”, the binding signal was 10400 fluorescence intensity (a.u.).

Take “GCCTCACCCCTAAACACCTAAATCCTAATCCATCCATTCCCGGAGTCACCTAGTGCAG”: the binding signal was 8540 fluorescence intensity (a.u.).

“AGCGCTCTCTCTCTCTCTCTCTCTCTCGCATCGCGCGCAGCGGAGTCACCTAGTGCAG”: the binding signal was 9590 fluorescence intensity (a.u.).

For “CACCATGAAATCATCTTCGCTTATTTAATAGAGGATATCACGGAGTCACCTAGTGCAG”, the binding signal was 8450 fluorescence intensity (a.u.).

In the case of “CGTTCGTAGCTTTTTTCCGTTGTCCCACACTTGAGAGTACCGGAGTCACCTAGTGCAG”, the binding signal is 9050 fluorescence intensity (a.u.).

Turning to “GATTTAGGACATTCAGGGTTGTCGGGTGTGTTGAGCTCGGCGGAGTCACCTAGTGCAG”, the binding signal is 9820 fluorescence intensity (a.u.).

“ACAGAGTACAGACACTACCATTAAAAAGTCAAAACGGGCCCGGAGTCACCTAGTGCAG”: the binding signal is 8670 fluorescence intensity (a.u.).

Consider “GATTCACAATGCGGCCTGCCACGCCAAGACTACTCGTGCTCGGAGTCACCTAGTGCAG”, for which the binding signal was 8680 fluorescence intensity (a.u.).

Regarding “GCCGCCTTACACCCGGCCACCAGCTTGTTCGTCGCCGGCGCGGAGTCACCTAGTGCAG”, the binding signal was 8100 fluorescence intensity (a.u.).

On to “GTGCTTACTATCCTCCGCCTGAGTCCCTGCATCGGTCGCGCGGAGTCACCTAGTGCAG”, for which the binding signal is 8130 fluorescence intensity (a.u.).

With “TTGATTTGTTTTCCTTTTGCATAATAACGCTCTGCTAGCTCGGAGTCACCTAGTGCAG”, the binding signal was 9520 fluorescence intensity (a.u.).

“CATGCCTTGATTATTGTTTATCCCTTATTCCTTCGTAACCCGGAGTCACCTAGTGCAG”: the binding signal was 9800 fluorescence intensity (a.u.).

Regarding “TCCTCCTGTCTCTGCCTCTGCTCGGCTAGTCTAGTGTACTCGGAGTCACCTAGTGCAG”, the binding signal is 8810 fluorescence intensity (a.u.).

Regarding “CATCCACAAGTTCATCATATCCGTCGTCGTCTTCGTCTTCCGGAGTCACCTAGTGCAG”, the binding signal is 8290 fluorescence intensity (a.u.).

On to “CTCGTATCCACTCGTGTCCAACTGTTCTTGTGTCTTTGTTCGGAGTCACCTAGTGCAG”, for which the binding signal was 10100 fluorescence intensity (a.u.).

For the sequence “GTTTCATAATGTAAGATTTTCTAGCATTACCCATATTCATCGGAGTCACCTAGTGCAG”, the binding signal was 8160 fluorescence intensity (a.u.).

With “CCATGGTGTTAATATAATCATTCGTTGACCAGAATTGAGGCGGAGTCACCTAGTGCAG”, the binding signal is 16100 fluorescence intensity (a.u.).

Take “GTTCCTTTTTTTTTTTCAAAAAACGTTACATTGAATCTTTCGGAGTCACCTAGTGCAG”: the binding signal was 8840 fluorescence intensity (a.u.).

On to “TCTTTTCCTATTACGTGTCTTTTTTATCTCCTATATATACCGGAGTCACCTAGTGCAG”, for which the binding signal is 8230 fluorescence intensity (a.u.).

Regarding “ACACTGATTTTTGGTCGTTCGTTTTATTTAAATCATTTTTCGGAGTCACCTAGTGCAG”, the binding signal was 14100 fluorescence intensity (a.u.).

With “TCCCTGGAAGAAATCTTGTGCCCATTTCGTCGTGCTTTGTCGGAGTCACCTAGTGCAG”, the binding signal was 8430 fluorescence intensity (a.u.).

“CTCACCTACCCAATTGTCTCCTCCTCCTCAAATTTAGGTTCGGAGTCACCTAGTGCAG”: the binding signal was 8470 fluorescence intensity (a.u.).

Regarding “AGGAGTCCGATTGTCTCAAGTTAGCATGCGATTTTTTTTACGGAGTCACCTAGTGCAG”, the binding signal is 8280 fluorescence intensity (a.u.).

For the sequence “AAATATTTTCCATTGTTTTGCTTATTTGGTTTGACCCAAACGGAGTCACCTAGTGCAG”, the binding signal was 13100 fluorescence intensity (a.u.).

As to “GACCTTATGGACCTTATGGGTGATGATCTTATCTGATTCGCGGAGTCACCTAGTGCAG”, the binding signal was 9210 fluorescence intensity (a.u.).

“TCTGTGCATCATTTTTTCCCTTTTTTTTTGTGGCTTTCCCCGGAGTCACCTAGTGCAG”: the binding signal is 8430 fluorescence intensity (a.u.).

Take “GTGTTAGGTGCTGAGATTTTTGTACTTGCTTTATTATTTTCGGAGTCACCTAGTGCAG”: the binding signal was 8860 fluorescence intensity (a.u.).

Consider “TGTCTGTGTTTGTCCTGACTGATGATGCATTGACTCGTTGCGGAGTCACCTAGTGCAG”, for which the binding signal is 9770 fluorescence intensity (a.u.).

Turning to “CACACGACACGCACCAACAGACCCCTTTCCGGCGCGGGCCCGGAGTCACCTAGTGCAG”, the binding signal is 8400 fluorescence intensity (a.u.).

In the case of “TGGGTATTTCTCTTGATGCATGTTATTTCAGTTATTGATTCGGAGTCACCTAGTGCAG”, the binding signal is 10900 fluorescence intensity (a.u.).

“CTCCCTCATCTTCTTTATCTTTTCTGCGCTGGGAGACTTTCGGAGTCACCTAGTGCAG”: the binding signal is 10400 fluorescence intensity (a.u.).

For “TCGGACATATTCTTTTTTTTTCCCGATTTTTCTTTTACCGCGGAGTCACCTAGTGCAG”, the binding signal was 9320 fluorescence intensity (a.u.).

As to “GTTTCGTCTTCGAGAGCTCGACTTCACTCGCACCGTGTCCCGGAGTCACCTAGTGCAG”, the binding signal was 8950 fluorescence intensity (a.u.).

Turning to “ACCACCCCACAGGCCCACACCCACACTCTCCCAGTCCCGCCGGAGTCACCTAGTGCAG”, the binding signal was 11200 fluorescence intensity (a.u.).

On to “GCGCGCTGACCCGCTTGTACTCCTCCACCATGTTCCTCACCGGAGTCACCTAGTGCAG”, for which the binding signal was 8270 fluorescence intensity (a.u.).

With “ATGCCTACACACCACCACGCATGCACACCATCACACACATCGGAGTCACCTAGTGCAG”, the binding signal was 11600 fluorescence intensity (a.u.).

On to “CTCGTCGCGGTCGCAGGGGCGGGGCAGCGTTGCCGCGTTCCGGAGTCACCTAGTGCAG”, for which the binding signal was 10800 fluorescence intensity (a.u.).
